{"source": "PubChem BioAssay AID652272 (Drosophila RNAi Screening Center, 2013)", "assay": "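Genes whose knock-down decreases or increases Hedgehog reporter output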 (primary screen)", "system": "Drosophila clone 8 (Cl8) cells", "reagent": "long dsRNA against Drosophila genes", "measurement": "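Plate reader light from a firefly reporter under a ptc promoter fragment that responds to Hedgehog, with Renilla light as transfection reference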", "reading the numbers": "firefly Hh reporter signal: higher = more ptc reporter light; Renilla reference signal: higher = more Renilla control light", "active means": "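Called a hit if the two-replicate mean z-score lies below -2 or above +3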", "meaning of the calls": "active = hit: reporter lowered or raised; inactive = not a hit", "note": "In all, the deposit lists about 21,000 reagents; shown is a random part of those that have a named target and a result. Of all reagents, 503 (2.4%) were called active. 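Raw plate light values, not normalised; calls rest on replicate z-scores that were not deposited; hits include reporter decreases as well as increases.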 Not given: the amount of reagent, the time to read-out."}
{"gene":"Est-Q","DRSC id":"DRSC11835","firefly Hh reporter signal, replicate 1":84091,"firefly Hh reporter signal, replicate 2":1.05e5,"Renilla reference signal, replicate 1":3129,"Renilla reference signal, replicate 2":3524,"outcome":"inactive"}
{"gene":"SmydA-5","DRSC id":"DRSC04867","firefly Hh reporter signal, replicate 1":75021,"firefly Hh reporter signal, replicate 2":70035,"Renilla reference signal, replicate 1":1353,"Renilla reference signal, replicate 2":5190,"outcome":"inactive"}
{"gene":"Ir51b","DRSC id":"DRSC05540","firefly Hh reporter signal, replicate 1":1.78e5,"firefly Hh reporter signal, replicate 2":2.34e5,"Renilla reference signal, replicate 1":4420,"Renilla reference signal, replicate 2":10154,"outcome":"inactive"}
{"gene":"E(bx)","DRSC id":"DRSC08172","firefly Hh reporter signal, replicate 1":54666,"firefly Hh reporter signal, replicate 2":58909,"Renilla reference signal, replicate 1":2042,"Renilla reference signal, replicate 2":3846,"outcome":"inactive"}
{"gene":"E(bx)","DRSC id":"DRSC08509","firefly Hh reporter signal, replicate 1":67666,"firefly Hh reporter signal, replicate 2":40518,"Renilla reference signal, replicate 1":2092,"Renilla reference signal, replicate 2":2658,"outcome":"inactive"}
{"gene":"E(bx)","DRSC id":"DRSC08583","firefly Hh reporter signal, replicate 1":48071,"firefly Hh reporter signal, replicate 2":40950,"Renilla reference signal, replicate 1":2720,"Renilla reference signal, replicate 2":1968,"outcome":"inactive"}
{"gene":"CG7365","DRSC id":"DRSC10824","firefly Hh reporter signal, replicate 1":1.31e5,"firefly Hh reporter signal, replicate 2":84112,"Renilla reference signal, replicate 1":4422,"Renilla reference signal, replicate 2":2563,"outcome":"inactive"}
{"gene":"Tpst","DRSC id":"DRSC18989","firefly Hh reporter signal, replicate 1":5.96e5,"firefly Hh reporter signal, replicate 2":2.09e5,"Renilla reference signal, replicate 1":32201,"Renilla reference signal, replicate 2":5425,"outcome":"inactive"}
{"gene":"Tpst","DRSC id":"DRSC19696","firefly Hh reporter signal, replicate 1":1.17e5,"firefly Hh reporter signal, replicate 2":3.02e5,"Renilla reference signal, replicate 1":1232,"Renilla reference signal, replicate 2":12349,"outcome":"inactive"}
{"gene":"Tpst","DRSC id":"DRSC19723","firefly Hh reporter signal, replicate 1":1.83e5,"firefly Hh reporter signal, replicate 2":64077,"Renilla reference signal, replicate 1":10448,"Renilla reference signal, replicate 2":1648,"outcome":"inactive"}
{"gene":"Tpst","DRSC id":"DRSC19724","firefly Hh reporter signal, replicate 1":1.16e5,"firefly Hh reporter signal, replicate 2":1.43e5,"Renilla reference signal, replicate 1":3658,"Renilla reference signal, replicate 2":5840,"outcome":"inactive"}
{"gene":"CG12279","DRSC id":"DRSC14495","firefly Hh reporter signal, replicate 1":1.48e5,"firefly Hh reporter signal, replicate 2":1.59e5,"Renilla reference signal, replicate 1":4743,"Renilla reference signal, replicate 2":4570,"outcome":"inactive"}
{"gene":"Dscam2","DRSC id":"DRSC08869","firefly Hh reporter signal, replicate 1":7.05e5,"firefly Hh reporter signal, replicate 2":1.74e5,"firefly Hh reporter signal, replicate 3":1.22e5,"Renilla reference signal, replicate 1":5922,"Renilla reference signal, replicate 2":4722,"outcome":"inactive"}
{"gene":"Dscam2","DRSC id":"DRSC10198","firefly Hh reporter signal, replicate 1":49805,"firefly Hh reporter signal, replicate 2":57225,"Renilla reference signal, replicate 1":1072,"Renilla reference signal, replicate 2":4490,"outcome":"inactive"}
{"gene":"Dscam2","DRSC id":"DRSC10285","firefly Hh reporter signal, replicate 1":15572,"firefly Hh reporter signal, replicate 2":13092,"Renilla reference signal, replicate 1":2679,"Renilla reference signal, replicate 2":1242,"outcome":"inactive"}
{"gene":"Dscam2","DRSC id":"DRSC11018","firefly Hh reporter signal, replicate 1":31143,"firefly Hh reporter signal, replicate 2":51389,"Renilla reference signal, replicate 1":4359,"Renilla reference signal, replicate 2":5138,"outcome":"inactive"}
{"gene":"Dscam2","DRSC id":"DRSC11019","firefly Hh reporter signal, replicate 1":57769,"firefly Hh reporter signal, replicate 2":44564,"Renilla reference signal, replicate 1":6992,"Renilla reference signal, replicate 2":4116,"outcome":"inactive"}
{"gene":"wit","DRSC id":"DRSC08741","firefly Hh reporter signal, replicate 1":1.28e5,"firefly Hh reporter signal, replicate 2":1.21e5,"Renilla reference signal, replicate 1":4346,"Renilla reference signal, replicate 2":4729,"outcome":"inactive"}
{"gene":"CG14109","DRSC id":"DRSC10112","firefly Hh reporter signal, replicate 1":50752,"firefly Hh reporter signal, replicate 2":41738,"firefly Hh reporter signal, replicate 3":60331,"Renilla reference signal, replicate 1":3888,"Renilla reference signal, replicate 2":3962,"outcome":"inactive"}
{"gene":"Qsox3","DRSC id":"DRSC16096","firefly Hh reporter signal, replicate 1":8.24e5,"firefly Hh reporter signal, replicate 2":1.53e5,"Renilla reference signal, replicate 1":48066,"Renilla reference signal, replicate 2":11227,"outcome":"inactive"}
{"gene":"Rad23","DRSC id":"DRSC17167","firefly Hh reporter signal, replicate 1":1.05e5,"firefly Hh reporter signal, replicate 2":84818,"Renilla reference signal, replicate 1":2657,"Renilla reference signal, replicate 2":3152,"outcome":"inactive"}

Sorted by “firefly Hh reporter signal, replicate 2” (low to high): 3 of the entries above.
{"gene":"SmydA-5","DRSC id":"DRSC04867","firefly Hh reporter signal, replicate 1":75021,"firefly Hh reporter signal, replicate 2":70035,"Renilla reference signal, replicate 1":1353,"Renilla reference signal, replicate 2":5190,"outcome":"inactive"}
{"gene":"Est-Q","DRSC id":"DRSC11835","firefly Hh reporter signal, replicate 1":84091,"firefly Hh reporter signal, replicate 2":1.05e5,"Renilla reference signal, replicate 1":3129,"Renilla reference signal, replicate 2":3524,"outcome":"inactive"}
{"gene":"Ir51b","DRSC id":"DRSC05540","firefly Hh reporter signal, replicate 1":1.78e5,"firefly Hh reporter signal, replicate 2":2.34e5,"Renilla reference signal, replicate 1":4420,"Renilla reference signal, replicate 2":10154,"outcome":"inactive"}
